Results from PubChem BioAssay AID1347075 (National Center for Advancing Translational Sciences (NCATS), 2019).
The campaign covered roughly 400,000 compounds. About 5,500 (1.4%) were called active. Inconclusive means that the source gave no clear call. Such entries were picked first, then a sample of the others. The call rests on the fitted dose curve; in most records, active means well fitted cell-killing curve with a large enough effect; inconclusive means small, poorly fitted or top-dose-only effect, or effect the other way; inactive means flat fitted curve, though single readings scatter. Potencies of inconclusive entries are doubtful fits and often do not repeat.

assay: qHTS assay for MDR1-selective chemotherapeutics: Primary screen using the parental adenocarcinoma cell KB-3-1; settings: KB-3-1 viability, CellTiter-Glo ATP luminescence, 72 h; activity change, negative = cytotoxic: at 46.1 µM (top of the series); further: nearly all actives have a fitted effect of over 60% in size
In short: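 Parental KB-3-1 viability, qHTS format: 72 h compound exposure, 37 °C; CellTiter-Glo; media-only wells and DMSO plates as controls; concentration-effect fits on corrected data.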
On the % scale 0 is the no-effect control and ±100 the full control effect; potency means the concentration at half of the fitted maximal effect.

| SMILES | activity change, negative = cytotoxic | Potency |
| --- | --- | --- |
| C=C(C)COc1ccc2c(C)c(CC(=O)N3C[C@H]4C[C@@H](C3)c3cccc(=O)n3C4)c(=O)oc2c1C | inconclusive: -1.16% | – |
| COc1cccc2sc(Nc3nnc(-c4ccccc4Cl)o3)nc12 | – | inconclusive: 1.03 µM [cytotoxic, full curve, poor fit] |
| CCOc1ccc(S(=O)(=O)Nc2cnc3ccccc3c2)cc1 | – | inconclusive: 9.2 µM [cytotoxic, partial curve] |
| Oc1ccccc1N1CCN(C(=S)NCCc2ccccc2)CC1 | – | inconclusive: 29.1 µM [cytotoxic, single point] |
| O=C1CSC(=O)N1CC(O)COc1ccc(Cl)cc1 (centres undefined) | inactive: -8.3% | – |
| Cn1c(=O)c2[nH]c(COc3ccc(C(C)(C)C)cc3)nc2n(C)c1=O | – | inconclusive: 23.1 µM [cytotoxic, single point] |
| COC(=O)c1ccc2oc(=O)c(S(=O)(=O)c3ccc(C)cc3)cc2c1 | inactive: 2.75% | – |
| c1ccc2cc3[nH]c(CN4CCOCC4)nc3cc2c1 | inactive: -11.4% | – |
| COCCNC(=O)c1c(N)n(CCC2=CCCCC2)c2nc3ccccc3nc12 | – | inconclusive: 29.1 µM [cytotoxic, single point] |
| O=C(COc1ccc(C(=O)c2ccccc2)cc1)NCC1CCCCC1 | inactive: -12.9% | – |
| Cc1nn(-c2ccccc2)c(C)c1NC(=O)CCl | – | active: 14.6 µM |
| COc1cc(C(=O)Nc2ccccc2N2CCOCC2)ccc1OCc1c(C)noc1C | inactive: -4.63% | – |
| CC(Sc1ccc(Cl)cc1)C(=O)Nc1ccc(S(=O)(=O)N2CCOCC2)cc1 (centres undefined) | – | inconclusive: 23.1 µM [cytotoxic, single point] |
| Clc1ccc(-c2c[n+]3c(n2-c2ccccc2)SCC3)cc1 | – | active: 14.6 µM |
| O=C1OCCN1C(=O)[C@H]1[C@H](c2ccc([N+](=O)[O-])cc2)C(c2ccc(F)cc2)=NN1c1ccccc1 | inactive: 0% | – |
| COc1ccc(N2CCN(C(=O)CNC(=O)Cc3ccc(Cl)cc3)CC2)cc1 | – | active: 14.6 µM |
| S=C(NCCCN1CCOCC1)NCCCN1CCOCC1 | inactive: 2.72% | – |
| Cc1ccc(-c2onc(C)c2C)cc1S(=O)(=O)N1CC(C)Oc2ccccc21 (centres undefined) | – | inconclusive: 29.1 µM [cytotoxic, single point] |
| Cc1csc(N(C)C(=O)CSc2nnc(COc3cccc4ccccc34)o2)n1 | inactive: 0.979% | – |
| O=C(Nc1ccc(N2CCCCCC2)cc1)c1ccccc1Cl | – | inconclusive: 25.9 µM [cytotoxic, single point] |
| O=C(NC1CCCC1)C(c1ccc(F)cc1)N(Cc1ccc(Cl)cc1)C(=O)CCl (centres undefined) | – | inconclusive: 29.1 µM [cytotoxic, single point] |
| COc1ccc(C2C(C#N)=C3NC(=O)c4c(sc5c4CCCCC5)N3C3=C2C(=O)CC(C)(C)C3)cc1 (centres undefined) | – | inconclusive: 25.9 µM [cytotoxic, single point] |
| CC(C)(C)C1CCc2nc(NC(=O)COc3ccc(F)cc3)sc2C1 (centres undefined) | inactive: 0.596% | – |
| C[C@@H](OC(=O)c1[nH]cnc1C(=O)NCc1ccc(CNC(=O)OC(C)(C)C)cc1)c1ccccc1 | – | inconclusive: 18.4 µM [cytotoxic, single point] |
| O=C(CSc1nc2ccccc2c(=O)n1Cc1ccco1)N1CCCCCC1 | – | inconclusive: 25.9 µM [cytotoxic, single point] |

| SMILES | activity change, negative = cytotoxic | Potency |
| --- | --- | --- |
| CC(C)OC(=O)c1c(N)n(CCCN2CCOCC2)c2nc3ccccc3nc12 | inactive: -0.621% | – |
| CNc1c(N)c(=O)oc2ccccc12 | inactive: 1.01% | – |
| NC(=O)c1sc2nnc(-c3ccccc3)c(-c3ccccc3)c2c1N | – | inconclusive: 0.103 µM [rising, full curve] |
| COC(=O)c1ccc(N2CCN(S(=O)(=O)c3ccc(C)cc3)CC2)c([N+](=O)[O-])c1 | inactive: 19.2% | – |
| CCOc1ccc2oc(C(=O)Nc3ccc4c(c3)OCO4)c(C)c2c1 | – | inconclusive: 3.66 µM [cytotoxic, partial curve, poor fit] |
| Cc1ccnc(NC(=O)c2ccc3[nH]c(=O)c(=O)[nH]c3c2)c1 | inactive: 1.03% | – |
| Cc1ccc(CSc2nc3c(c(N(C)C)n2)CCCC3)cc1 | – | inconclusive: 29.1 µM [cytotoxic, single point] |
| Cc1ccc(C(C)C)c(OCC(=O)Nn2c(=O)[nH]c3ccccc3c2=O)c1 | inactive: -0.0472% | – |
| COC(=O)CSc1nnc(NC(=O)CCc2ccccc2)s1 | – | inconclusive: 32.6 µM [cytotoxic, single point] |
| COCCN=c1scc(-c2cccs2)n1/N=C/c1ccc(O)c(O)c1O | – | inconclusive: 23.1 µM [cytotoxic, single point] |
| CN1/C(=C\C=C2/SC(=S)N(CC(=O)O)C2=O)C(C)(C)c2ccccc21 | inactive: -16.4% | – |
| Cc1ccccc1N=C1NC(=O)/C(=C/c2cccn2C)S1 | – | inconclusive: 29.1 µM [cytotoxic, single point] |
| O=C(Cn1ccccc1=O)NCc1ccc(F)cc1 | inactive: -1.7% | – |
| CSc1ccccc1OCc1cc(C(=O)NCCn2nc(C)cc2C)no1 | inactive: 10% | – |
| Cc1ccc(N(C(=O)Cn2nnc(-c3ccc(F)cc3)n2)C(CC(C)C)C(=O)NCC2CCCO2)cc1 (centres undefined) | inactive: -21.2% | – |
| Cc1ccc(NC(=O)c2ccc([N+](=O)[O-])o2)c(C)c1 | – | inconclusive: 16.4 µM [cytotoxic, single point] |
| CN1CCN(S(=O)(=O)c2cccc(C(=O)N(C)Cc3c(F)cccc3Cl)c2)CC1 | inactive: 0.379% | – |
| Cc1cc(-c2cc(C(=O)NCc3ccccc3)on2)nc(S(C)(=O)=O)n1 | – | inconclusive: 20.6 µM [cytotoxic, partial curve, poor fit] |
| Cc1ccsc1CNC(=O)C1(C)CCCN1CC(C)C (centres undefined) | – | inconclusive: 29.1 µM [cytotoxic, single point] |
| O=C(Nc1ccc(N2CCN(C(=O)c3cccs3)CC2)c(Cl)c1)c1ccco1 | – | inconclusive: 14.6 µM [cytotoxic, single point] |
| Cc1ccc(C(=O)NNC(=O)c2cc3ccccc3cc2O)cc1 | – | inconclusive: 16.4 µM [cytotoxic, single point] |
| Cc1c2cnccc2c(C)c2c1oc1ccccc12 | – | inconclusive: 18.4 µM [cytotoxic, single point] |
| Cc1ccc(/C=N\NC(=O)c2ccc(Cn3cc(Br)c([N+](=O)[O-])n3)o2)o1 | inconclusive: 31.5% | – |
| S=c1[nH]nc(COc2cccc3ccccc23)n1Cc1ccccc1 | inactive: 6.86% | – |
| COc1ccc(-c2nc(C#N)c(NCCCn3ccnc3)o2)cc1OC | – | inconclusive: 2.91 µM [rising, full curve] |

| SMILES | activity change, negative = cytotoxic | Potency |
| --- | --- | --- |
| O=C(CCc1nc(-c2ccc(Cl)cc2)no1)NCc1ccccc1CN1CCOCC1 | – | inconclusive: 25.9 µM [cytotoxic, single point] |
| Cc1ccccc1CSc1nc(-c2ccccc2)nc2c1Cc1c(CO)cnc(C)c1O2 | – | inconclusive: 0.0461 µM [rising, full curve] |
| CCOC(=O)c1c(S(=O)(=O)N2CCCC(C(=O)Nc3cc(C)ccc3OC)C2)c(C)n(C)c1C (centres undefined) | inactive: -0.0247% | – |
| CC(=O)N1Cc2cc(C(=O)NCC(F)(F)F)nc(-c3cccc(-c4cc5ccccc5o4)c3)c2[C@H]1CCO | – | inconclusive: 29.1 µM [cytotoxic, single point] |
| CC(C)c1ccc(/C=N/n2nnnc2Nc2ccccc2)cc1 | inactive: -4.16% | – |
| OC(COc1ccc(OCC(O)CN2CCCCC2)cc1)CN1CCCCC1 (centres undefined) | inconclusive: 4.65% | – |
| Cc1ccc(CN2CCN(Cc3ccc(-n4cccn4)cc3)CC2CCO)cc1 (centres undefined) | inactive: -19.5% | – |
| COc1ccc(NC(=O)C2Cc3c(-c4ccc5c(c4)OCO5)ccnc3O2)cc1OC (centres undefined) | – | inconclusive: 29.1 µM [cytotoxic, single point] |
| Cc1cccc(C)c1OCC(=O)N/N=C/C=C/c1ccco1 | – | inconclusive: 29.1 µM [cytotoxic, single point] |
| COc1ccc(-c2csc(NC(=S)NC(=O)/C=C/c3ccccc3)n2)cc1Br | – | inconclusive: 16.4 µM [cytotoxic, partial curve, poor fit] |
| Cc1ccc(NC(=O)CCNC(=O)c2ccc(Br)cc2)cc1S(=O)(=O)N1CCCCCC1 | – | inconclusive: 29.1 µM [cytotoxic, single point] |
| Cc1cc(Cl)c(S(=O)(=O)N2CCN(c3cccc(C)c3C)CC2)cc1OCC(N)=O | – | inconclusive: 35.5 µM [cytotoxic, single point] |
| Cc1ccc(S(=O)(=O)N2CC=C(c3ccc(F)cc3)CC2)cc1 | inactive: -0.747% | – |
| COc1cc(-c2cnc3c(NC=O)cc(-c4ccccc4)cn23)cc(OC)c1OC | – | inconclusive: 0.0065 µM [cytotoxic, full curve, poor fit] |
| COc1ccc(Cc2c(-c3ccc(OC)c(OC)c3)nc3cc(C)c(Br)c(C)n23)c(C)c1 | – | inconclusive: 25.9 µM [cytotoxic, single point] |
| Cc1ccc(CSc2nc3ccncc3[nH]2)cc1 | – | active: 11.6 µM |
| O=C(O)CCC(=O)Nc1ccc(C(=O)OCC(=O)c2ccc(Cl)cc2Cl)cc1 | – | inconclusive: 3.66 µM [rising, full curve, poor fit] |
| Cc1ccc(-n2c(C)cc(C(=O)COc3cccnc3[N+](=O)[O-])c2C)cc1 | inactive: 0% | – |
| COC(=O)C1=CN(C2CCCCC2)C=C(C(=O)OC)C1c1ccc2c(c1)OCO2 | inactive: 2.57% | – |
| COc1ccc(C(=O)NC(=S)NNC(=O)c2ccco2)cc1 | inconclusive: -11.7% | – |
| CCn1c2c(c(=N)c3c1CCC3)CCCC2 | – | active: 11.6 µM |
| CCCCn1c(N)c(N(CCOC)C(=O)CN(C)S(=O)(=O)c2ccc(F)cc2)c(=O)[nH]c1=O | – | inconclusive: 0.291 µM [cytotoxic, full curve, poor fit] |
| O=C1C=C(C2OC(CO)C(O)C2O)C(=O)N1 (centres undefined) | inactive: 0% | – |
| c1ccc(-c2cc(-c3nc(-c4ccccn4)no3)c3ccccc3n2)cc1 | – | inconclusive: 16.4 µM [cytotoxic, partial curve] |

Six successive compounds out of the list so far, for reference:

| SMILES | activity change, negative = cytotoxic | Potency |
| --- | --- | --- |
| O=C(Cn1ccccc1=O)NCc1ccc(F)cc1 | inactive: -1.7% | – |
| CSc1ccccc1OCc1cc(C(=O)NCCn2nc(C)cc2C)no1 | inactive: 10% | – |
| Cc1ccc(N(C(=O)Cn2nnc(-c3ccc(F)cc3)n2)C(CC(C)C)C(=O)NCC2CCCO2)cc1 (centres undefined) | inactive: -21.2% | – |
| Cc1ccc(NC(=O)c2ccc([N+](=O)[O-])o2)c(C)c1 | – | inconclusive: 16.4 µM [cytotoxic, single point] |
| CN1CCN(S(=O)(=O)c2cccc(C(=O)N(C)Cc3c(F)cccc3Cl)c2)CC1 | inactive: 0.379% | – |
| Cc1cc(-c2cc(C(=O)NCc3ccccc3)on2)nc(S(C)(=O)=O)n1 | – | inconclusive: 20.6 µM [cytotoxic, partial curve, poor fit] |
